Measured values taken from PMC12120744.
These are yes or no findings as the source states them, for the method shown. Binding seen in cells or lysates may run through a third protein. Where a sequence is shown, tags or fusion partners need not be part of it.

Target: T1, Flag-RNF112 (UniProt Q9ULX5)
T1 sequence: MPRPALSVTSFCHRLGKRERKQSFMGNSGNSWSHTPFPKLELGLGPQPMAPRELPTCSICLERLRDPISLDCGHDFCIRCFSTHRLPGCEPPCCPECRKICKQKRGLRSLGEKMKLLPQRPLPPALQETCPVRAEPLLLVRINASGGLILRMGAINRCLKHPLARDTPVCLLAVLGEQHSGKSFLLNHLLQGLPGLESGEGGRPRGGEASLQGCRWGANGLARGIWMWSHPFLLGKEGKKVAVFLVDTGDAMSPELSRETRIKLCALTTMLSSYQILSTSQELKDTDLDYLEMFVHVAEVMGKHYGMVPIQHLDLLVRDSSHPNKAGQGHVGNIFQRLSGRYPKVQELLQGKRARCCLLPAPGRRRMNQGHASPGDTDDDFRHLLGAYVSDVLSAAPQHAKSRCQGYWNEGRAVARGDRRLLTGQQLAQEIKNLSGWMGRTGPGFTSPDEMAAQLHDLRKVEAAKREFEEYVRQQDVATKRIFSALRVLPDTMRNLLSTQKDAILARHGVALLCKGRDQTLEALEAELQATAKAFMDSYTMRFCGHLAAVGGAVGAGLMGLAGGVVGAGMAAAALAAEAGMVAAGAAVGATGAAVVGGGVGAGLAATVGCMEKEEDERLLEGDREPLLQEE
Test: co-IP; 293T cells transfected with the respective plasmids for 48 h, MG132 (10 µM) for 8 h; lysis in IP buffer 1 h at 4 °C; anti-Flag or anti-HA antibody overnight at 4 °C, magnetic beads 2 h; Western blot

How did the binding turn out when “N segment of c-Myc with deletion of the MB II domain (domain or fragment)” was run?
The binding was “no binding”.
